Reference: US20110098339A1
Results are given in words; binding and its absence hold for the method and conditions named. In cells and extracts the contact can be indirect. Some binding calls cover weakened binding; strength is not graded here. Where a sequence is shown, tags or fusion partners need not be part of it.

Assays:
[1] = target: T1, ANT2-Flag (human) (UniProt P05141); experiment: co-immunoprecipitation with anti-Flag antibody from co-transfected COS7 lysate, western blot with anti-HA (FIG. 3C right)
T1 sequence: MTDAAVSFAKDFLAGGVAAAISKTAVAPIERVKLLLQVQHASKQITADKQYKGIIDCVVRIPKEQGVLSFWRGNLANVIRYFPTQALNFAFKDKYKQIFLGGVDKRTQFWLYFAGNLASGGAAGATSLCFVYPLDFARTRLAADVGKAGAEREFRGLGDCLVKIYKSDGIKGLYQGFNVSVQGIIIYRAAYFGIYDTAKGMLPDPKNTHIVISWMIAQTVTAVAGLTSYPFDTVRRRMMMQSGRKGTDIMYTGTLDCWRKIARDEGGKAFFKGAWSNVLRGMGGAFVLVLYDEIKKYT

[2] = target: T1, ANT2-Flag (human); experiment: co-immunoprecipitation with anti-Flag antibody from co-transfected COS-7 lysate, western blot with anti-HA

- binding [1]: binds
- binding [2]: binds
B1: C2orf18-HA (protein, not shown: small tags and cut ends)
chain: SINTLSAKWADNFMAEGCGGSKEHSFQHPFLQAVGMFLGEFSCLAAFYLLRCRAAGQSDSSVDPQQPFNPLLFLPPALCDMTGTSLMYVALNMTSASSFQMLRGAVIIFTGLFSVAFLGRRLVLSQWLGILATIAGLVVVGLADLLSKHDSQHKLSEVITGDLLIIMAQIIVAIQMVLEEKFVYKHNVHPLRAVGTEGLFGFVILSLLLVPMYYIPAGSFSGNPRGTLEDALDAFCQVGQQPLIAVALLGNISSIAFFNFAGISVTKELSATTRMVLDSLRTVVIWALSLALGWEAFHALQILGFLILLIGTALYNGLHRPLLGRLSRGRPLAEESEQERLLGGTRTPINDAS
